No constants are given. Whether binding was seen depends on the method and setting. Binding seen in cells or lysates may run through a third protein. Some binding calls cover weakened binding; strength is not graded here. For some of these results: Where a sequence is shown, tags or fusion partners need not be part of it.
Legend:
[1] = molecular target: T1, Cry2 (exogenous, tagged, expressed in HEK293T cells) (UniProt Q49AN0); experiment: co-IP; exogenous (transfected, tagged) proteins in HEK293T cell extract (TNE lysis buffer); antibody overnight at 4 °C, Protein A/G magnetic beads 2 h at 4 °C, three washes with TNE; immunoblot
T1 sequence: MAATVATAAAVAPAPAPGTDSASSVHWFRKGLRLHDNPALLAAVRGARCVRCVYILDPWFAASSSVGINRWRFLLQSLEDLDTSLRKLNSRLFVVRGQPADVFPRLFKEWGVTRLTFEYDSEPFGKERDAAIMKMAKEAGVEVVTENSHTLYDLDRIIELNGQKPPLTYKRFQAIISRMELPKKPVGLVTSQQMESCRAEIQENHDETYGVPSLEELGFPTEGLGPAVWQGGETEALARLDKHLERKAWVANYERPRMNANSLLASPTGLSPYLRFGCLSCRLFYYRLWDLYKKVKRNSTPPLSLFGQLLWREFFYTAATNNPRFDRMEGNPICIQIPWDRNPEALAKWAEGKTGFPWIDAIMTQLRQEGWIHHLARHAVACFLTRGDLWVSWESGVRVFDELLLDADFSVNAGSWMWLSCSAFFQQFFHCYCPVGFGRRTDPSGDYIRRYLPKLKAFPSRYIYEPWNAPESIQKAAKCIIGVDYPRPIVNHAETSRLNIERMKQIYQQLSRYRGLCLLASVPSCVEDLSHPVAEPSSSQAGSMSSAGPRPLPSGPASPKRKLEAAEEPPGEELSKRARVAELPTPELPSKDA

Protein sequences, listed by entry. Tags and fused reporters are not part of them.
UniProt Q09472: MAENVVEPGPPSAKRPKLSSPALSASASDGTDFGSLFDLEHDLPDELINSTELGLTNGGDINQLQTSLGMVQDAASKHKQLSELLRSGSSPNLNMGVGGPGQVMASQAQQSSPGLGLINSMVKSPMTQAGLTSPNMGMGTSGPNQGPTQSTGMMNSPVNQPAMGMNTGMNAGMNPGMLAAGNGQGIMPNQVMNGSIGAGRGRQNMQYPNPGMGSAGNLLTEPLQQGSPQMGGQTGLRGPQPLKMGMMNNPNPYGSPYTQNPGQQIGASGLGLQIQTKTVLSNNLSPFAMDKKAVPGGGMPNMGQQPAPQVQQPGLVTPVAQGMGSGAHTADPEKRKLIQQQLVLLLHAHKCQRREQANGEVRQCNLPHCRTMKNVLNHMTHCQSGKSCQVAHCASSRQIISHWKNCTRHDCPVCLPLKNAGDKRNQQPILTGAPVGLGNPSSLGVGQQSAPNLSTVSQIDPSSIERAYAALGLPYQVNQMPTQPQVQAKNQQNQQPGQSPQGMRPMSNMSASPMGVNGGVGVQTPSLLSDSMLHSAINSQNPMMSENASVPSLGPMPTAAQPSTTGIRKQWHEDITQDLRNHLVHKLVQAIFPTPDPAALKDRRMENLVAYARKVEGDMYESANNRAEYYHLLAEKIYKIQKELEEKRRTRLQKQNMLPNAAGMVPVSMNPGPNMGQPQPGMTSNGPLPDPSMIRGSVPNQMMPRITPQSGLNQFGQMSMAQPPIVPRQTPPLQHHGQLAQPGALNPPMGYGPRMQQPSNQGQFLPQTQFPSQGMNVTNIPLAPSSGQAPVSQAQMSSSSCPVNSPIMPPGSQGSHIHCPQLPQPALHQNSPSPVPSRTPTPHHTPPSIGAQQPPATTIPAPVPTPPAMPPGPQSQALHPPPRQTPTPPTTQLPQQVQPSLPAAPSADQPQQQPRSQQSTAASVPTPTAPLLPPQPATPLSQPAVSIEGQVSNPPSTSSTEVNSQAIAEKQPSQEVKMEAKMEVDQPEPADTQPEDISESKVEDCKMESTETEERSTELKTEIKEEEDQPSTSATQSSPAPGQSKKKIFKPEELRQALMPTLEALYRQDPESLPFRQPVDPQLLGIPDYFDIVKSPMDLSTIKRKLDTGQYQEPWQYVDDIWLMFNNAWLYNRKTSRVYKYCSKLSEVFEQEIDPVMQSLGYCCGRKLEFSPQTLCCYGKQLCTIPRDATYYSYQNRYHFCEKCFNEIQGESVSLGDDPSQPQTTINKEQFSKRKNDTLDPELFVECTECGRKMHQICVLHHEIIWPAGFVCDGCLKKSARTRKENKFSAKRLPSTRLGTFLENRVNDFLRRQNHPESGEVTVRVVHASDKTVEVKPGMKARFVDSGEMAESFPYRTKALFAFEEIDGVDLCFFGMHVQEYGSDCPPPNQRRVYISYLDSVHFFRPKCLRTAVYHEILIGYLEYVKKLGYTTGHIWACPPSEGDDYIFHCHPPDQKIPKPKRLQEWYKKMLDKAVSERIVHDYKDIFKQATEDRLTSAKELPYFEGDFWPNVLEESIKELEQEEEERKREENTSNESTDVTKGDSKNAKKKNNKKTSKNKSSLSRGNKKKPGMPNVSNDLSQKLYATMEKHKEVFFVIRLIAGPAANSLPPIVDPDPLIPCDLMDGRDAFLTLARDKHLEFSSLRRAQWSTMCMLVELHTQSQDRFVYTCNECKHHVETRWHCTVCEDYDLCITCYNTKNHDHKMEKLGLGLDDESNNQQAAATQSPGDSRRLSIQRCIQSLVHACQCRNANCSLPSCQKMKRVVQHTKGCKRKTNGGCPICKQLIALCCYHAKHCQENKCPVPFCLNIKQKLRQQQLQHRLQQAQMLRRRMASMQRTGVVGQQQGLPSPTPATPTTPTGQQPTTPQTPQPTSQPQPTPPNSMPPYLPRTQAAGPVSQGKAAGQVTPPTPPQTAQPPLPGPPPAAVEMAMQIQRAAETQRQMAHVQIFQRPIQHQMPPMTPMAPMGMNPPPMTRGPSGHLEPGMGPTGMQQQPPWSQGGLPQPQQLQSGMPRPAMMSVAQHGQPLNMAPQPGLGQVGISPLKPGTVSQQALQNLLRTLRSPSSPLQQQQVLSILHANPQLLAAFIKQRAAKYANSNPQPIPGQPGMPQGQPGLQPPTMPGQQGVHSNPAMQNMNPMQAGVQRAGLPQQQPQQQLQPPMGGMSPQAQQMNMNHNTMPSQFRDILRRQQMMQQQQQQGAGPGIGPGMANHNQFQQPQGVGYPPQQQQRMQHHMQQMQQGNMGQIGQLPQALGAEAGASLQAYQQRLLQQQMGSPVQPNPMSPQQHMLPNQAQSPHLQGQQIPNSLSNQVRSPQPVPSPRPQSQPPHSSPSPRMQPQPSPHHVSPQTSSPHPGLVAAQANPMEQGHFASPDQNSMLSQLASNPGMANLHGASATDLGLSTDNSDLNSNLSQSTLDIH
UniProt Q9UBN7: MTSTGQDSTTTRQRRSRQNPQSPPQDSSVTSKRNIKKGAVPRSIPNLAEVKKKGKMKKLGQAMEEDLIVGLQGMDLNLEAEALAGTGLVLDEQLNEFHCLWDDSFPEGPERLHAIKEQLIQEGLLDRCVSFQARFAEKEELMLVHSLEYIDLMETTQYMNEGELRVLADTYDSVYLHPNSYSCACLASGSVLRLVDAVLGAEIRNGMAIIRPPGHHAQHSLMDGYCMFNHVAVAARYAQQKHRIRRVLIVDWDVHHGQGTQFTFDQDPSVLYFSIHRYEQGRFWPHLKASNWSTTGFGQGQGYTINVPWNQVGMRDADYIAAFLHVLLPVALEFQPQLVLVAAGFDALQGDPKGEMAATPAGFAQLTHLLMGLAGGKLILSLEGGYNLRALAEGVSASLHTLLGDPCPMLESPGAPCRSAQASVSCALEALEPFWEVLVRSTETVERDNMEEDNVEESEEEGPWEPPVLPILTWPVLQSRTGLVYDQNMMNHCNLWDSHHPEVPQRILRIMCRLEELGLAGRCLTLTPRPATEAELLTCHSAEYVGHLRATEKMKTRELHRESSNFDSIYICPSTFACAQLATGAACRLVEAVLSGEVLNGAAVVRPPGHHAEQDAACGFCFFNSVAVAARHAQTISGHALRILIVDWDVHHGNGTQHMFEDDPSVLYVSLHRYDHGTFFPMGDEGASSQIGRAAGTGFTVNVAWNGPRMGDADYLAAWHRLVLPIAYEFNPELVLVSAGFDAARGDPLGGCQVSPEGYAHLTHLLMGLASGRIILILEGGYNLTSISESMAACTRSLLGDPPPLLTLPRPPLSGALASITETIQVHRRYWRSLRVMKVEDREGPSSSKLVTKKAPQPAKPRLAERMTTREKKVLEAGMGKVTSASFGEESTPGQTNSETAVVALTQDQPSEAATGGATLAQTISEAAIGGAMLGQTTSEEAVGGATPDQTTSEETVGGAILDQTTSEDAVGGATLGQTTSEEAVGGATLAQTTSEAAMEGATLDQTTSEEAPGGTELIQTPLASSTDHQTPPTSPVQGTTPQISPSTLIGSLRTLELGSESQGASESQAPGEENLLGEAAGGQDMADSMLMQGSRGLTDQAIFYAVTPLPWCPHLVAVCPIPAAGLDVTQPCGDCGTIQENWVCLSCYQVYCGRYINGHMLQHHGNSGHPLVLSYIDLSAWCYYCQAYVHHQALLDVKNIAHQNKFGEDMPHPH

[2] = molecular target: T2, Cryptochrome 2 (endogenous, MCF7 cells) (human (endogenous in MCF7)) (UniProt Q49AN0); experiment: co-IP; endogenous proteins in MCF7 cell extract (TNE lysis buffer: 20 mM Tris-HCl pH 7.4, 100 mM NaCl, 1 mM EDTA, 0.5% NP-40, 10% glycerol); antibody overnight at 4 °C, Protein A/G magnetic beads 2 h at 4 °C, three washes with TNE; immunoblot
T2 sequence: T1 sequence

Row | Substance | binding [1] | binding [2]
1 | HA-p300 (from UniProt Q09472 1-2414) (enzyme) | binds | –
2 | Myc-HDAC6 (from UniProt Q9UBN7 1-1215) (enzyme) | binds | –
3 | histone deacetylase 6 (endogenous, MCF7 cells) (from UniProt Q9UBN7 1-1215) (enzyme) | – | binds
4 | p300 (endogenous, MCF7 cells) (from UniProt Q09472 1-2414) (enzyme) | – | binds
